{
  "source": "the supplement of paper PMC4604168 (melanoma cell lines)",
  "note": "This is one part of the list. Many values rest on one well or one pass, so single values are uncertain.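 The apoptosis fraction was the count of cleaved-PARP antibody-stained nuclei relative to all DNA-stained nuclei, imaged in 1,536-well plates. Screening doses were set so most cells survived, and baseline and induced cleaved-PARP levels vary greatly across cell lines.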",
  "data": [
    {"tested_on": "WM3619", "assay": "cleaved PARP positive nuclei fraction relative to DMSO control; melanoma cells; higher = more apoptosis", "conditions": "library dose: low library concentration; 72 h", "units": {"cleaved PARP positive nuclei fraction": "%"}, "values": [
      {"smiles": "Nc1ccn([C@@H]2O[C@H](CO)[C@@H](O)C2(F)F)c(=O)n1", "note": "[gemcitabine] + OCCn1cc(-c2cnc3nnn(Cc4ccc5ncccc5c4)c3n2)cn1 [PF04217903] (first compound 0.0004 µM, partner dose 1 µM)", "cleaved PARP positive nuclei fraction": 144},
      {"smiles": "CNC(=O)c1cc(Oc2ccc(NC(=O)Nc3ccc(Cl)c(C(F)(F)F)c3)cc2)ccn1", "note": "[sorafenib] + CO[C@@H]1[C@H](N(C)C(=O)c2ccccc2)C[C@H]2O[C@]1(C)n1c3ccccc3c3c4c(c5c6ccccc6n2c5c31)C(=O)NC4 [Midostaurin] (first compound 0.4 µM, partner dose 0.08 µM)", "cleaved PARP positive nuclei fraction": 128},
      {"smiles": "O=C(O)[C@@H]1[O][Sb](=[O])([O][Sb]2(=[O])[O][C@H]([C@H](O)CO)[C@H](O)[C@H](C(=O)O)[O]2)[O][C@H]([C@H](O)CO)[C@@H]1O", "note": "(stereo partly drawn) [stibogluconate] + Cc1ccc(NC(=O)c2cccc(N(C)C)c2)cc1NC(=O)c1ccc(O)cc1 [ZM336372] (first compound 2 µM, partner dose 2 µM)", "cleaved PARP positive nuclei fraction": 102},
      {"smiles": "CN1CCN(c2ccc3nc(-c4c(N)c5c(F)cccc5[nH]c4=O)[nH]c3c2)CC1", "note": "[Dovitinib] + COc1cc2c(Oc3ccc4[nH]c(C)cc4c3F)ncnc2cc1OCCCN1CCCC1 [cediranib] (first compound 0.1 µM, partner dose 0.4 µM)", "cleaved PARP positive nuclei fraction": 87.1},
      {"smiles": "CC(C)C[C@H](NC(=O)[C@H](Cc1ccccc1)NC(=O)c1cnccn1)B(O)O", "note": "[Bortezomib] + CC(C)CCN1c2nc(Nc3cc(F)c(O)c(F)c3)ncc2N(C)C(=O)C1C [BID1870] (first compound 0.001 µM, partner dose 0.2 µM)", "cleaved PARP positive nuclei fraction": 780},
      {"smiles": "O=C(O)c1ccc2c(c1)nc(Nc1cccc(Cl)c1)c1ccncc12", "note": "+ NCC(=O)Nc1ccc(-n2nc(C(F)(F)F)cc2-c2ccc3c(ccc4ccccc43)c2)cc1 [OSU03012] (first compound 0.4 µM, partner dose 1 µM)", "cleaved PARP positive nuclei fraction": 121},
      {"smiles": "Nc1ncn([C@H]2C[C@H](O)[C@@H](CO)O2)c(=O)n1", "note": "[decitabine] + Cn1cc(/C=C2\\C(=O)Nc3cccnc32)c2ccccc21 [GW441756] (first compound 0.1 µM, partner dose 0.4 µM)", "cleaved PARP positive nuclei fraction": 90.7},
      {"smiles": "CNC(=O)c1cc(Oc2ccc(NC(=O)Nc3ccc(Cl)c(C(F)(F)F)c3)cc2)ccn1", "note": "[sorafenib] + Oc1nc(-c2ccc(C(F)(F)F)cc2)nc2c1CSCC2 [XAV939] (first compound 0.4 µM, partner dose 2 µM)", "cleaved PARP positive nuclei fraction": 103},
      {"smiles": "O=C(O)[C@@H]1[O][Sb](=[O])([O][Sb]2(=[O])[O][C@H]([C@H](O)CO)[C@H](O)[C@H](C(=O)O)[O]2)[O][C@H]([C@H](O)CO)[C@@H]1O", "note": "(stereo partly drawn) [stibogluconate] + C=CCn1c(=O)c2cnc(Nc3ccc(N4CCN(C)CC4)cc3)nc2n1-c1cccc(C(C)(C)O)n1 [MK1775] (first compound 2 µM, partner dose 0.02 µM)", "cleaved PARP positive nuclei fraction": 108},
      {"smiles": "CC(C)C[C@H](NC(=O)[C@H](Cc1ccccc1)NC(=O)c1cnccn1)B(O)O", "note": "[Bortezomib] + O=c1cc(-c2cccc3c2Sc2ccccc2S3)oc(N2CCOCC2)c1 [KU55933] (first compound 0.001 µM, partner dose 1 µM)", "cleaved PARP positive nuclei fraction": 405},
      {"smiles": "Cn1c(=O)n(-c2ccc(C(C)(C)C#N)cc2)c2c3cc(-c4cnc5ccccc5c4)ccc3ncc21", "note": "+ OCCn1cc(-c2cnc3nnn(Cc4ccc5ncccc5c4)c3n2)cn1 [PF04217903] (first compound 0.004 µM, partner dose 1 µM)", "cleaved PARP positive nuclei fraction": 106},
      {"smiles": "Cn1c(=O)n(-c2ccc(C(C)(C)C#N)cc2)c2c3cc(-c4cnc5ccccc5c4)ccc3ncc21", "note": "+ c1cc(-c2cnn3cc(-c4ccc(OCCN5CCCCC5)cc4)cnc23)ccn1 [Dorsomorphin] (first compound 0.004 µM, partner dose 0.4 µM)", "cleaved PARP positive nuclei fraction": 105},
      {"smiles": "O=C(O)c1ccc2c(c1)nc(Nc1cccc(Cl)c1)c1ccncc12", "note": "+ COc1ccc(-c2ccc3c(N4CCOCC4)nc(N4C[C@@H](C)O[C@@H](C)C4)nc3n2)cc1CO [KU0063794] (first compound 0.4 µM, partner dose 0.02 µM)", "cleaved PARP positive nuclei fraction": 83.6}
    ]}
  ]
}
